Reference: article PMC5534435
Results are given in words; binding and its absence hold for the method and conditions named. Binding seen in cells or lysates may run through a third protein. Some binding calls cover weakened binding; strength is not graded here. Tags and fused reporters may be left off the sequences shown.

Sequences of proteins named here, by UniProt entry; tags and fusion partners are left off. Residues count along the entry.
UniProt O55005, residues 26-1651: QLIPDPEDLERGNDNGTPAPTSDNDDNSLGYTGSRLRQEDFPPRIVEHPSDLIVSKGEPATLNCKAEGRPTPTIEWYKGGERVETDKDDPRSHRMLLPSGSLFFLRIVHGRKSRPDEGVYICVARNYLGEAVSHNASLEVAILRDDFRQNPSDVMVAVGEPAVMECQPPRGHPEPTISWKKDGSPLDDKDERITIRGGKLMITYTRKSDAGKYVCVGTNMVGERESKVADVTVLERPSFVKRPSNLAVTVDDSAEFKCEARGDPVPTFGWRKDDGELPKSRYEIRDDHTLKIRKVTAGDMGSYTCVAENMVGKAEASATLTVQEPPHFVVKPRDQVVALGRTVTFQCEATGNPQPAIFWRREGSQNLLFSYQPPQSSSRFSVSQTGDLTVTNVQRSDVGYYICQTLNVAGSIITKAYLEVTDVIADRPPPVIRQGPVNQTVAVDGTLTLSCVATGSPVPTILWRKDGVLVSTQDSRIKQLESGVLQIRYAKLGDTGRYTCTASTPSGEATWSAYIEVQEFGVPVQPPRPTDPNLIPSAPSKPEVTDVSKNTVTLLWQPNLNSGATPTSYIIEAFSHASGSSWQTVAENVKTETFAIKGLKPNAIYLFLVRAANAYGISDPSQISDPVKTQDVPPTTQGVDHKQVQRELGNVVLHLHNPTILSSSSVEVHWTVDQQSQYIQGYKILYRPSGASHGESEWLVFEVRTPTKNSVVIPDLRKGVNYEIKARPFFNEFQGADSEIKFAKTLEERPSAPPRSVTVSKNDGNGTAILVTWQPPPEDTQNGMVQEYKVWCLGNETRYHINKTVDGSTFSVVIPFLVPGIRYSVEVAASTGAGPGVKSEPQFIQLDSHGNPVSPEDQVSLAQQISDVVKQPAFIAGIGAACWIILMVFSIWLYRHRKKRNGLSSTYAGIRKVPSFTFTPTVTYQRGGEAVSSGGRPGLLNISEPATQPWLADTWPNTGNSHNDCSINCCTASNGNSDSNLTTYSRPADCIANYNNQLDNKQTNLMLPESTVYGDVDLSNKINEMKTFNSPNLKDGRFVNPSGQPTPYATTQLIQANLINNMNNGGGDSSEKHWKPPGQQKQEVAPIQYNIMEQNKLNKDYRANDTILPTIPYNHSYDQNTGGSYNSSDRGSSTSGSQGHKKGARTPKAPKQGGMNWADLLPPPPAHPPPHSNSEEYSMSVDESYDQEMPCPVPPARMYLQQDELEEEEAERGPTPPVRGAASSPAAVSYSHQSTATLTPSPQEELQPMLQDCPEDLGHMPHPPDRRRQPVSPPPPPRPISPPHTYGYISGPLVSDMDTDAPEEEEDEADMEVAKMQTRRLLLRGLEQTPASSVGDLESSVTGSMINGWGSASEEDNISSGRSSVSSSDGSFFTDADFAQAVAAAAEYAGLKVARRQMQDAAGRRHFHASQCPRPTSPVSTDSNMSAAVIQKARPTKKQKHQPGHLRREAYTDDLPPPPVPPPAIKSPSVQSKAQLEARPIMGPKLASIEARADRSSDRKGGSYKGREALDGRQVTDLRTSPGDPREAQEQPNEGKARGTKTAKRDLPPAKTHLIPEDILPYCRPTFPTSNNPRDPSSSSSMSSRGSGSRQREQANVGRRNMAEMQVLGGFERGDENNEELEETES
UniProt Q13153: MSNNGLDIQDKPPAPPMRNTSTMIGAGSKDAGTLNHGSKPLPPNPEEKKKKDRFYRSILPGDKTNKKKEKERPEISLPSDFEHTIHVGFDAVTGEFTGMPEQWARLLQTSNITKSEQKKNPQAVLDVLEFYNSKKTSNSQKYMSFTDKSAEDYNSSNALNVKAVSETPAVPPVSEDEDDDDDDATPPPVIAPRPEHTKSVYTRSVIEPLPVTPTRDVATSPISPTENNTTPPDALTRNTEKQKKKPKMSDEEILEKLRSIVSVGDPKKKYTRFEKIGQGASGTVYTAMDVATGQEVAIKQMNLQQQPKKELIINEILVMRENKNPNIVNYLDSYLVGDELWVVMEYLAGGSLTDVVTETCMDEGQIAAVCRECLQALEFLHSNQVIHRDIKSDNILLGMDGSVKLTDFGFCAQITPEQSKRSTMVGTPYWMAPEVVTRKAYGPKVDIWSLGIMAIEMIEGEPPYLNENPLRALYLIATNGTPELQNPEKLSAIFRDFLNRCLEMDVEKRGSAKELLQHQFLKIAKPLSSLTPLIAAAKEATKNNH

Tests used:
[1] = molecular target: Full-length (FL) human APP695 (human) (UniProt P05067); assay: co-IP; HEK293 cells transfected with the two constructs (single transfections as controls); IP with APPc, anti-HA or anti-Myc antibody, Western blot
[2] = molecular target: Rat Robo1 tagged with the hemagglutinin (Robo1-HA) (rat) (UniProt O55005); assay: as above
[3] = molecular target: GST-APPE1 fusion protein (amino acids 22-189 of APP extracellular E1 domain) (UniProt P05067); assay: pull-down; purified GST or GST-APPE1 on glutathione agarose beads incubated with CM from HEK293 cells overexpressing Myc-tagged Slit2, 3 h at 4°C; anti-Myc Western blot; only the target purified
[4] = molecular target: Myc-Pak1 (UniProt Q13153); assay: co-IP; HEK293 cells transfected with the two constructs (single transfections as controls); IP with APPc, anti-HA or anti-Myc antibody, Western blot

| binding [4] | Binder | binding [1] | binding [2] | binding [3] |
| --- | --- | --- | --- | --- |
|  | Human Slit2 tagged with c-Myc (Slit2-Myc) (ligand, UniProt O94813 31-1529) QCSCSGSTVDCHGLALRSVPRNIPRNTERLDLNGNNITRITKTDFAGLRHLRVLQLMENKISTIERGAFQDLKELERLRLNRNHLQLFPELLFLGTAKLYRLDLSENQIQAIPRKAFRGAVDIKNLQLDYNQISCIEDGAFRALRDLEVLTLNNNNITRLSVASFNHMPKLRTFRLHSNNLYCDCHLAWLSDWLRQRPRVGLYTQCMGPSHLRGHNVAEVQKREFVCSGHQSFMAPSCSVLHCPAACTCSNNIVDCRGKGLTEIPTNLPETITEIRLEQNTIKVIPPGAFSPYKKLRRIDLSNNQISELAPDAFQGLRSLNSLVLYGNKITELPKSLFEGLFSLQLLLLNANKINCLRVDAFQDLHNLNLLSLYDNKLQTIAKGTFSPLRAIQTMHLAQNPFICDCHLKWLADYLHTNPIETSGARCTSPRRLANKRIGQIKSKKFRCSAKEQYFIPGTEDYRSKLSGDCFADLACPEKCRCEGTTVDCSNQKLNKIPEHIPQYTAELRLNNNEFTVLEATGIFKKLPQLRKINFSNNKITDIEEGAFEGASGVNEILLTSNRLENVQHKMFKGLESLKTLMLRSNRITCVGNDSFIGLSSVRLLSLYDNQITTVAPGAFDTLHSLSTLNLLANPFNCNCYLAWLGEWLRKKRIVTGNPRCQKPYFLKEIPIQDVAIQDFTCDDGNDDNSCSPLSRCPTECTCLDTVVRCSNKGLKVLPKGIPRDVTELYLDGNQFTLVPKELSNYKHLTLIDLSNNRISTLSNQSFSNMTQLLTLILSYNRLRCIPPRTFDGLKSLRLLSLHGNDISVVPEGAFNDLSALSHLAIGANPLYCDCNMQWLSDWVKSEYKEPGIARCAGPGEMADKLLLTTPSKKFTCQGPVDVNILAKCNPCLSNPCKNDGTCNSDPVDFYRCTCPYGFKGQDCDVPIHACISNPCKHGGTCHLKEGEEDGFWCICADGFEGENCEVNVDDCEDNDCENNSTCVDGINNYTCLCPPEYTGELCEEKLDFCAQDLNPCQHDSKCILTPKGFKCDCTPGYVGEHCDIDFDDCQDNKCKNGAHCTDAVNGYTCICPEGYSGLFCEFSPPMVLPRTSPCDNFDCQNGAQCIVRINEPICQCLPGYQGEKCEKLVSVNFINKESYLQIPSAKVRPQTNITLQIATDEDSGILLYKGDKDHIAVELYRGRVRASYDTGSHPASAIYSVETINDGNFHIVELLALDQSLSLSVDGGNPKIITNLSKQSTLNFDSPLYVGGMPGKSNVASLRQAPGQNGTSFHGCIRNLYINSELQDFQKVPMQTGILPGCEPCHKKVCAHGTCQPSSQAGFTCECQEGWMGPLCDQRTNDPCLGNKCVHGTCLPINAFSYSCKCLEGHGGVLCDEEEDLFNPCQAIKCKHGKCRLSGLGQPYCECSSGYTGDSCDREISCRGERIRDYYQKQQGYAACQTTKKVSRLECRGGCAGGQCCGPLRSKRRKYSFECTDGSSFVDEVEKVVKCGCTRCVS | binds | binds | binds |
| binds | HA-Fe65 (protein, UniProt O00213 1-710) MSVPSSLSQSAINANSHGGPALSLPLPLHAAHNQLLNAKLQATAVGPKDLRSAMGEGGGPEPGPANAKWLKEGQNQLRRAATAHRDQNRNVTLTLAEEASQEPEMAPLGPKGLIHLYSELELSAHNAANRGLRGPGLIISTQEQGPDEGEEKAAGEAEEEEEDDDDEEEEEDLSSPPGLPEPLESVEAPPRPQALTDGPREHSKSASLLFGMRNSAASDEDSSWATLSQGSPSYGSPEDTDSFWNPNAFETDSDLPAGWMRVQDTSGTYYWHIPTGTTQWEPPGRASPSQGSSPQEESQLTWTGFAHGEGFEDGEFWKDEPSDEAPMELGLKEPEEGTLTFPAQSLSPEPLPQEEEKLPPRNTNPGIKCFAVRSLGWVEMTEEELAPGRSSVAVNNCIRQLSYHKNNLHDPMSGGWGEGKDLLLQLEDETLKLVEPQSQALLHAQPIISIRVWGVGRDSGRERDFAYVARDKLTQMLKCHVFRCEAPAKNIATSLHEICSKIMAERRNARCLVNGLSLDHSKLVDVPFQVEFPAPKNELVQKFQVYYLGNVPVAKPVGVDVINGALESVLSSSSREQWTPSHVSVAPATLTILHQQTEAVLGECRVRFLSFLAVGRDVHTFAFIMAAGPASFCCHMFWCEPNAASLSEAVQAACMLRYQKCLDARSQASTSCLPAPPAESVARRVGWTVRRGVQSLWGSLKPKRLGAHTP |  |  |  |
